These are yes or no findings as the source states them, for the method shown. Binding seen in cells or lysates may run through a third protein. Some entries that bind do so weakly or less than the wild type.

Protein sequences, listed by entry. Tags and fused reporters are not part of them.
UniProt P10361: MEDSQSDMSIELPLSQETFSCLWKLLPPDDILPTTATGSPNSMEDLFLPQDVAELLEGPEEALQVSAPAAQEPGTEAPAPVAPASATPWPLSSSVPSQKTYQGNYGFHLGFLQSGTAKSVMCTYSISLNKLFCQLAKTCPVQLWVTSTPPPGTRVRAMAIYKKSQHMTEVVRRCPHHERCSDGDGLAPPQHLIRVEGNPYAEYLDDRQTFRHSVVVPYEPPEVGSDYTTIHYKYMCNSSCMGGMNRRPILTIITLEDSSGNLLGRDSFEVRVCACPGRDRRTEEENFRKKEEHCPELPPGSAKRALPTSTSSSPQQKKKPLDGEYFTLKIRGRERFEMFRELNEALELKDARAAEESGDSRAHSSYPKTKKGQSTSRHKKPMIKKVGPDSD
UniProt Q62747: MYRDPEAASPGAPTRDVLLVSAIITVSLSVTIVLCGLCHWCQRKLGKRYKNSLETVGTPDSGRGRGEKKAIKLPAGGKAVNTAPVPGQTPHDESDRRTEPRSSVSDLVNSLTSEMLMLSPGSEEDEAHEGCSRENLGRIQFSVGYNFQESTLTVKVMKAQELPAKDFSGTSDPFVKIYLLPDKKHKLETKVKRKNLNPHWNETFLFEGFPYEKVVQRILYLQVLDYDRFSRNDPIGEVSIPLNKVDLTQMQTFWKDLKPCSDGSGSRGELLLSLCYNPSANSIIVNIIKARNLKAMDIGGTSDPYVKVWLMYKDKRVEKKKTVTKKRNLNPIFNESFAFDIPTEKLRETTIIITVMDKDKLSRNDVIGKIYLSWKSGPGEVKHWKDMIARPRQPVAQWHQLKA

This experiment deals with p53 (rat (endogenous in H9c2)) (UniProt P10361). Description: co-IP; Pierce Classic IP kit; antibody on protein A/G agarose; 200 ug of H9c2 lysate, 4 °C overnight; Western blot with anti-Syt7 and anti-p53; cells with or without 1 uM CORT for 48 h, and with Syt7 siRNA. For orientation: A western blot detects proteins with antibodies after separation by electrophoresis.

In the case of “Synaptotagmin-7 (from UniProt Q62747 1-403)”, the binding result is reported as “binds”.

The record behind these values is article PMC12712958.
